The other results are listed elsewhere or left out.
These sequences were tested against OsWRKY34 (Oryza sativa, UniProt Q0JBA9 1-250) (assay: protein-binding microarray (RPBM); PBS, 2% BSA, 51.3 ng/ul salmon testes DNA, 50 uM zinc acetate, 200 nM TF, 25 C, 1 h; high values mean tight binding). Conditions: protein: recombinant; tags: N-terminal polyhistidine and DsRed monomer fusion (pET32a); label: CyDye5-dUTP incorporated in the synthesized complementary strand; 3' TTTTT single-stranded linker to array surface; dsDNA, one strand shown.
Summary of the method: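 Transcription factors were made in E. coli BL21-CodonPlus as N-terminal fusions to a polyhistidine tag and DsRed, then purified on Ni–NTA. After primer extension with Cy5-dUTP and blocking with 2% BSA, a custom Agilent array was exposed for 1 h at 25 °C to 200 nM protein in PBS, 2% BSA, salmon testes DNA and 50 µM zinc acetate. Washed arrays were scanned on an Axon 4000B, and the binding signal is per-feature fluorescence intensity in arbitrary units.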

Sequences of proteins named here, by UniProt entry; tags and fusion partners are left off.
UniProt Q0JBA9, entry or part of it: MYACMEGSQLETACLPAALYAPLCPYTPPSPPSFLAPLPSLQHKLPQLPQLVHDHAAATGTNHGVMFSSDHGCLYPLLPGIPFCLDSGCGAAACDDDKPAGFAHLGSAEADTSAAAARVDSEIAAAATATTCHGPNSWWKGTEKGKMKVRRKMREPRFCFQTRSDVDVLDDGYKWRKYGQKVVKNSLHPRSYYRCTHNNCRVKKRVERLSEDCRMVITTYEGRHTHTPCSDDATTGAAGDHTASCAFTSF

Q: Which binding signal does the source give for “CTTTTGCCAGTGGCCCATCATGGTAACTGTCTGCACTACGCGGAGTCACCTAGTGCAG” here?
A: 8270 fluorescence intensity (a.u.)

Q: Which binding signal does the source give for “TTTACAGTTGATTTTGACGGGTTTGTTGGCGAGGATTTTTCGGAGTCACCTAGTGCAG” here?
A: 9360 fluorescence intensity (a.u.)

Q: For “TGATGGTGAGGTGACTTTTGTTTCTTGATTTCGCGTTGCCCGGAGTCACCTAGTGCAG”, which binding signal is on record?
A: 9420 fluorescence intensity (a.u.)

Q: How did the binding signal turn out when “AGAATTGCACATTGTATCCAGCCTATCACTCAATCACCTCCGGAGTCACCTAGTGCAG” was run?
A: 8720 fluorescence intensity (a.u.)

Q: “CGCTGCGCACTCACCTCTCATCGTCGCACGCACGCCCGCACGGAGTCACCTAGTGCAG” was tested. Which binding signal did it give?
A: 9630 fluorescence intensity (a.u.)

Q: With “AGTGTTGTATCCGTCGGCTGCCCCATAGTCTTGGTCCTCTCGGAGTCACCTAGTGCAG” as the sequence, how does the binding signal read?
A: 11400 fluorescence intensity (a.u.)

Q: “AGCCTATGTATCCATATATACACTCCCATTTAGTTATTTCCGGAGTCACCTAGTGCAG” was tested. Which binding signal did it give?
A: 11700 fluorescence intensity (a.u.)

Q: For “CTCCTTTAGCTAAAACCACAAGACTGCCATTCTCTACGAACGGAGTCACCTAGTGCAG”, which binding signal is on record?
A: 8400 fluorescence intensity (a.u.)

Q: With “CTGCCACGTCACATTTGCCGCCCTCTGGGAGGGCGATTTTCGGAGTCACCTAGTGCAG” as the sequence, how does the binding signal read?
A: 8580 fluorescence intensity (a.u.)

Q: Which binding signal does the source give for “ACTACCACTGCATAGTGTCATGCATCATTGACTCATCATCCGGAGTCACCTAGTGCAG” here?
A: 11700 fluorescence intensity (a.u.)

Q: Which binding signal does the source give for “GGGGAGGGGAGAATGGGCCGATGGCCCACTCGAAGGAAAACGGAGTCACCTAGTGCAG” here?
A: 10100 fluorescence intensity (a.u.)

Q: With “AAACTCGACGCAACCCCTACCTGGCGCGCCAACTGTCGAACGGAGTCACCTAGTGCAG” as the sequence, how does the binding signal read?
A: 9170 fluorescence intensity (a.u.)

Q: Which binding signal does the source give for “GCTACTCATACTCCCCTGTTCTATGGTGTTGTGATTTGTGCGGAGTCACCTAGTGCAG” here?
A: 8050 fluorescence intensity (a.u.)

Q: How did the binding signal turn out when “TTCGTCGATCAGCGTCACGAGCCATTAATTCCTTTCTCGCCGGAGTCACCTAGTGCAG” was run?
A: 9790 fluorescence intensity (a.u.)

Q: For “GGCCGGCGACCAGCTTCGCCGCCACCCATGTATCGTCTCTCGGAGTCACCTAGTGCAG”, which binding signal is on record?
A: 10000 fluorescence intensity (a.u.)

Q: For “GATTTTCTAGGTTTCATCCAATATCAATCTCTTCTCCTCACGGAGTCACCTAGTGCAG”, which binding signal is on record?
A: 8240 fluorescence intensity (a.u.)

Q: How did the binding signal turn out when “CTGCGCGTCCCTTTTTGTTTCTCTTTCTCCTAGCAACAAGCGGAGTCACCTAGTGCAG” was run?
A: 14600 fluorescence intensity (a.u.)

Q: “ATGGGCTGAAATTTCAGAAGGCATCCATCCCCATGATAATCGGAGTCACCTAGTGCAG” was tested. Which binding signal did it give?
A: 8330 fluorescence intensity (a.u.)

Q: How did the binding signal turn out when “ACTTGTATAACTTGAACTGCACTTCTTTCATATTCCTTCGCGGAGTCACCTAGTGCAG” was run?
A: 12100 fluorescence intensity (a.u.)

Q: Which binding signal does the source give for “TAGCTACTCTTTTTTTTTTTGGTGACGTGCCCCATTCACTCGGAGTCACCTAGTGCAG” here?
A: 10900 fluorescence intensity (a.u.)

Q: For “TCCCAATTTTTTTCTCACATGCACTTTGTCACCTGTCAGACGGAGTCACCTAGTGCAG”, which binding signal is on record?
A: 9430 fluorescence intensity (a.u.)

Q: Which binding signal does the source give for “ACCAATCACACATTTCCTCCGATTATTCTCACCTATTTTTCGGAGTCACCTAGTGCAG” here?
A: 11300 fluorescence intensity (a.u.)

Q: With “CTTCTCAAACTATCAAAGGAGTCGATTTGCACCTGTTTTACGGAGTCACCTAGTGCAG” as the sequence, how does the binding signal read?
A: 8110 fluorescence intensity (a.u.)

Q: “GACTCCTCGTGCTTGTGCTAGGTTAGCTGCTCTCCTCTTCCGGAGTCACCTAGTGCAG” was tested. Which binding signal did it give?
A: 9010 fluorescence intensity (a.u.)

Q: For “ATCGAACTCCTAACTGCAGCTCATGATTTCTAATATATATCGGAGTCACCTAGTGCAG”, which binding signal is on record?
A: 8880 fluorescence intensity (a.u.)

Q: How did the binding signal turn out when “AACCCAAACTGCTCTTCCGCCCTCCTCACCCCGATTCTTTCGGAGTCACCTAGTGCAG” was run?
A: 8090 fluorescence intensity (a.u.)

Q: Which binding signal does the source give for “ACTGGAGGGGAACGAGAGAGGTGGCTGGACTGTATTTTCCCGGAGTCACCTAGTGCAG” here?
A: 9890 fluorescence intensity (a.u.)

Q: With “CATCCAAGTTAGGTATATCCCTCTTGTTGTGTATCTGCATCGGAGTCACCTAGTGCAG” as the sequence, how does the binding signal read?
A: 11300 fluorescence intensity (a.u.)

Q: “CTCGCCGTCGACTCCTCCTCCTCCTCCTCCTCTCACCATGCGGAGTCACCTAGTGCAG” was tested. Which binding signal did it give?
A: 9380 fluorescence intensity (a.u.)

Q: For “CCCTTTACTTGATTTTCTGCTGGTTGGTTTATCTTTTATTCGGAGTCACCTAGTGCAG”, which binding signal is on record?
A: 19600 fluorescence intensity (a.u.)

Q: For “TACTGCTATACACATGTTCTGTATTCTTACTTGTAACAGCCGGAGTCACCTAGTGCAG”, which binding signal is on record?
A: 8540 fluorescence intensity (a.u.)

Q: For “CTTATTGTTCATCATCCTCCTCCTCATAGCTGACCAAATCCGGAGTCACCTAGTGCAG”, which binding signal is on record?
A: 9200 fluorescence intensity (a.u.)

Q: “TTAACTATAACCACTTTCGCATTCTCTATCGTTTTGACCACGGAGTCACCTAGTGCAG” was tested. Which binding signal did it give?
A: 8450 fluorescence intensity (a.u.)

Q: How did the binding signal turn out when “TGGTGGGTGCATTGTTGTTCACATTCCGGATCCCTGCATCCGGAGTCACCTAGTGCAG” was run?
A: 9220 fluorescence intensity (a.u.)

Q: Which binding signal does the source give for “CGCCACCACCTACATTAAAGCTCTACCATTTACTAACGAGCGGAGTCACCTAGTGCAG” here?
A: 8350 fluorescence intensity (a.u.)

Q: “GCTCTTTGACATCAGTTTTTCTTACTTCTATGTGATTTACCGGAGTCACCTAGTGCAG” was tested. Which binding signal did it give?
A: 8540 fluorescence intensity (a.u.)

Q: Which binding signal does the source give for “CTCTCTCTCTCTCTTTATTTTTTTTTAATACGCAAGAAGCCGGAGTCACCTAGTGCAG” here?
A: 8230 fluorescence intensity (a.u.)

Q: “TTGACACCGTTAACTTTTTAGCATATGTTTGACCGTTCATCGGAGTCACCTAGTGCAG” was tested. Which binding signal did it give?
A: 9610 fluorescence intensity (a.u.)

Q: For “CTCTTAATTTAGGGGTGGCTCATCATCTCTCTCCTCACTTCGGAGTCACCTAGTGCAG”, which binding signal is on record?
A: 9920 fluorescence intensity (a.u.)

Q: How did the binding signal turn out when “CAGCGGGCCCAGCAAGTCAGCCTCACATCTTCTTCTTCATCGGAGTCACCTAGTGCAG” was run?
A: 8340 fluorescence intensity (a.u.)

Q: “CCAAATTTCATCGGCGCATTGGGGTGGAGTTTGATCTCTTCGGAGTCACCTAGTGCAG” was tested. Which binding signal did it give?
A: 8750 fluorescence intensity (a.u.)

Q: How did the binding signal turn out when “TCGCTCGCCGCCGCGTCGCGTCGCGCCGCCACCTCACGCCCGGAGTCACCTAGTGCAG” was run?
A: 9040 fluorescence intensity (a.u.)

Source: paper PMC7819943, “Rice protein-binding microarrays: a tool to detect cis-acting elements near promoter regions in rice”
